Results are given in words; binding and its absence hold for the method and conditions named. Binding seen in cells or lysates may run through a third protein. Some results given as binding are weak or reduced against the parent protein; the word gives no strength. Tags and fused reporters may be left off the sequences shown.

The chains behind the UniProt entries cited, without tags or fusion partners.
UniProt Q8R429: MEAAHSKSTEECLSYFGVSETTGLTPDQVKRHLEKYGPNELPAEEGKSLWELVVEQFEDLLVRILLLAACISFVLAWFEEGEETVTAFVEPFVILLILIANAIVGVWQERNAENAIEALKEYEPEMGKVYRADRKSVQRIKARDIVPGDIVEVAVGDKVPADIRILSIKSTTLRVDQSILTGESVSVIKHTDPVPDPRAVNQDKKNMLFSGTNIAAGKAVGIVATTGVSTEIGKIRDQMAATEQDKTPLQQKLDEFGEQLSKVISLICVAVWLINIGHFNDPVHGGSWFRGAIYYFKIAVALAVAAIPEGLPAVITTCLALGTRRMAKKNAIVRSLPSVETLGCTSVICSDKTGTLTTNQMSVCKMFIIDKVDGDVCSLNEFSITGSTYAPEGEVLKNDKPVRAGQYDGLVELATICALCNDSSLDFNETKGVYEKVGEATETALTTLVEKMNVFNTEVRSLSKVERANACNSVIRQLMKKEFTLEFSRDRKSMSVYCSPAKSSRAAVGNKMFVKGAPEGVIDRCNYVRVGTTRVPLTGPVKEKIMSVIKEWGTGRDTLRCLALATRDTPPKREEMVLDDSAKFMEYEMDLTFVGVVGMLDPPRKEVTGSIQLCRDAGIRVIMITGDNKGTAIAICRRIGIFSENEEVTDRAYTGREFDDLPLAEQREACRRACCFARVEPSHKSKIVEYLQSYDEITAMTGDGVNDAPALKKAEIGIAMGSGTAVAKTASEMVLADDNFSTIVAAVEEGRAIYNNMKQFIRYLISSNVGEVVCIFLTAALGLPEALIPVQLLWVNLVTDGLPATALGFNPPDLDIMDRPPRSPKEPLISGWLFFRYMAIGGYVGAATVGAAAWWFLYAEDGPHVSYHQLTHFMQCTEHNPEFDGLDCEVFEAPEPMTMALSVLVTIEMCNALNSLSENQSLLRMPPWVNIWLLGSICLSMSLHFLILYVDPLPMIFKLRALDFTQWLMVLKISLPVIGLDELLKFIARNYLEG

This test deals with T1, Flag-MCARE (muscle-enriched Ca2+ regulator; transmembrane protein 233) (mouse) (UniProt D3Z1U7).
T1 sequence: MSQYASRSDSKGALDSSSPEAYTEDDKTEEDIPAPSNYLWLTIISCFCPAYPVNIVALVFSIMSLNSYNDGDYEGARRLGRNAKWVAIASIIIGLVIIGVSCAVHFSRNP
The experiment in a line: co-IP; HEK293 cells co-transfected; lysates (500 ug protein) in Co-IP buffer (20 mM NaPO4, 150 mM NaCl, 2 mM MgCl2, 0.1% NP-40, 10% glycerol, pH 7.4, 1 mM DTT) incubated with anti-DDDDK-tag mAb-magnetic agarose 60 min at 4 °C; eluted with 3× FLAG peptide; Western blot. Background: A western blot detects proteins with antibodies after separation by electrophoresis.

In the case of “Myc-SERCA1a (sarco/endoplasmic reticulum Ca2+ ATPase 1a) (from UniProt Q8R429 1-994)”, the binding entry was “binds”.

(Values after publication PMC12815910.)
